Laboratory results reported in publication PMC7549768.
Results are given in words; binding and its absence hold for the method and conditions named. In cells and extracts the contact can be indirect. Some binding calls cover weakened binding; strength is not graded here. For part of these data: Sequences can lack the tags named with a protein.

Amino acid sequences for entries named in this document (tags omitted).
UniProt P61026: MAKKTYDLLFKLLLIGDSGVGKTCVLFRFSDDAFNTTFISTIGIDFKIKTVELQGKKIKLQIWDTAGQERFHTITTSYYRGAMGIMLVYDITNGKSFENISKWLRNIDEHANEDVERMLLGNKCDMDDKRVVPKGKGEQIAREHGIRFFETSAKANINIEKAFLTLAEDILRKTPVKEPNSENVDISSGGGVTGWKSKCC
UniProt Q9DCC8: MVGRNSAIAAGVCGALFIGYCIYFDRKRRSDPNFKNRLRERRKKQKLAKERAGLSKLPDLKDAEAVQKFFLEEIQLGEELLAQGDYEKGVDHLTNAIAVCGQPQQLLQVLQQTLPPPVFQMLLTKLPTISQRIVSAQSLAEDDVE
UniProt Q15388: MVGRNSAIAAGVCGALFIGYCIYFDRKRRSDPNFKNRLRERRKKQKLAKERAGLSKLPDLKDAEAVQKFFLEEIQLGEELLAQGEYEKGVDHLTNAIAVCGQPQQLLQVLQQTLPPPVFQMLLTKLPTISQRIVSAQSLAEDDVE

Key:
FLAG-TBC1D21 = target: T1, FLAG-TBC1D21 (UniProt Q9D9D3); assay: co-IP; NT2D1 cells transfected with pFLAG-TBC1D21 and GFP-RAB10; lysate (4 mg protein in 1 mL) pre-cleared with A/G beads, incubated overnight with anti-FLAG or control IgG and A/G beads, washed twice with 1X PBS; immunoblot with FLAG, GFP, RAB10 and TOMM20 antibodies
T1 sequence: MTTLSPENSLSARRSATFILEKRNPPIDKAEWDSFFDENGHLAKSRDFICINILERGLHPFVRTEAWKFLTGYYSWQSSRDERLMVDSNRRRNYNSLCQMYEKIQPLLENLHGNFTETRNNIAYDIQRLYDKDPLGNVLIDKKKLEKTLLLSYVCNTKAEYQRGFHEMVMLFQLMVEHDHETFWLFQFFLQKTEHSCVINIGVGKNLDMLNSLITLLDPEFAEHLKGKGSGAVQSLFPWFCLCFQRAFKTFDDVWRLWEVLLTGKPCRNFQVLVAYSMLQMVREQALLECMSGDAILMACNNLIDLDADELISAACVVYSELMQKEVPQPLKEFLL

[1] = target: T2, TBC1D21 (mouse (endogenous in sperm)) (UniProt Q9D9D3); assay: proximity ligation; Duolink PLA on purified wild-type murine sperm fixed on slides; anti-TBC1D21 with anti-TOMM20 or anti-DNAH7 antibodies, 12 hours at 4°C; probes less than 40 nm apart give a signal; midpiece stained with Mito-tracker
T2 sequence: T1 sequence

For GFP-RAB10 (from UniProt P61026 1-200), the binding (FLAG-TBC1D21) was “binds”.
For “TOMM20 (translocase of outer membrane 20 of mitochondria) (from UniProt Q9DCC8 1-145)”, the binding [1] was “binds”.
“TOMM20 (translocase of outer membrane 20 of mitochondria) (from UniProt Q15388 1-145)” was tested, and the binding (FLAG-TBC1D21) was “binds”.
